Assay results taken from article PMC10689078.
The exact form of at least one protein or probe is not confirmed. No signal at the amounts used counts as a negative.

Experiments:
MBP = test: EMSA; settings: EMSA: 2 ug protein in 20 uL, 30 min at 25 C, 12% native PAGE; salt and pH not stated; recombinant protein; protein details: MBP alone (empty pMAL-c4X vector)
[1] = system: MBP-CaHY5 (Capsicum annuum L.); test: EMSA; settings: EMSA: 2 ug protein in 20 uL, 30 min at 25 C, 12% native PAGE, salt and pH not stated, recombinant protein, protein details: N-terminal MBP (pMAL-c4X)

Sequence	binding result (MBP)	binding result ([1]; repressed by competitor)	binding result [1]
CGTTGGATTGCACATGGGGAATCGACGATTGCGGTTGGTGACACGTGGTAAACATGAAAG (double strand) [CaPAL3 promoter WT probe (G-box)]	no binding	binds	–
CGTTGGATTGCACATGGGGAATCGACGATTGCGGTTGGTGACTTTTGGTAAACATGAAAG (double strand) [CaPAL3 promoter Mut probe]	–	–	no binding
GGCATCAACAATTGCACTAAATGGACATGTTAATGGGGATGTTGTAGCCAG (double strand) [CaPAL7 promoter WT probe (E-box)]	–	binds	–
GGCATCAACTTTTGCACTAAATGGACATGTTAATGGGGATGTTGTAGCCAG (double strand) [CaPAL7 promoter Mut probe]	–	–	no binding
